Experimental data from US20060160761A1, “Regulation of vascular endothelium using BMX tyrosine kinase” (priority 1994, published 2006).
“Also recorded” adds a separate entry of the source. At least one compound was matched to its structure with a doubt left.

Test system: endogenous Bmx
Assay: Kinase activity of endogenous Bmx immunoprecipitated from stimulated HUVECs, with or without PI-3 kinase inhibitors
Format: cell-based, human
Conditions: Wortmannin 100 nM for 30 min, LY294002 100 μM for 30 min
Source text: The polyclonal antibody (Ab) against human Bmx was produced against the Tec Homology (TH) domain by Dr. Toshio Suda (amino acids 151-169, NH2-[…]—COOH (SEQ. ID. NO.: 4)). The monoclonal anti-hemagglutinin (HA)-epitope Ab, phosphotyrosine Ab, and anti-CD31 Ab were from Berkeley Antibody Company (Richmond, Calif.), from Transduction Laboratories and from DAKO, respectively. GCSF growth factor was a kind gift from Dr. Riitta Alitalo, while VEGF was obtained from R&D Systems, Minneapolis, Minn. VEGF-B was produced in Drosophila cells by Terhi Karpanen. Mouse IL-3 was obtained from Calbiochem Novabiochem. Phosphatidyl inositol-3 kinase inhibitors Wortmannin and LY294002, were both from Sigma. For inhibition of PI3K activity, 100 nM for 30 min of Wortmannin and 100 μM of LY294002 for 30 min, were used.
Cell culture and transfections. 293T cells were grown in Dulbecco's Modified Eagle's Medium (DMEM), Human umbilical vein endothelial cells (HUVECs) were maintained in Hy-clone 199 medium. […]
In vitro substrate immunocomplex kinase assay was performed as follows. […] The filters were fixed and washed one time in 10% TCA 8% sodium pyrophosphate, 3 times in 5% TCA and 2 times in ethanol after which radioactivity was measured using Pharmacia Wallac 1410 Liquid Scintillation Counter. […] The gel was dried and Bmx autokinase activity was detected by exposure on film.

In the case of COC[C@H]1OC(=O)c2coc3c2[C@@]1(C)C1=C(C3=O)[C@@H]2CCC(=O)[C@@]2(C)C[C@H]1OC(C)=O [Wortmannin, reference compound], the “block of growth factor induced activation of Bmx” value is reported as “able to block the activation; also recorded: inhibition of the activation of Bmx could be detected”.
